{"source": "patent US20230414583A1", "about": "“LYSERGIC ACID DERIVATIVES WITH MODIFIED LSD-LIKE ACTION” (Mind Medicine, Inc., priority 2022, published 2023)", "origin": "cited, not measured here", "conditions": "humans, cited from earlier work", "data": [{"smiles": "CCN(CC)C(=O)[C@@H]1C=C2c3cccc4[nH]cc(c34)C[C@H]2N(C)C1", "note": "[LSD, 9,10-Didehydro-N,N-diethyl-6-methylergoline-8R-carboxamide]", "values": [{"measurement": "time of peak subjective effects", "setting": "psychoactive doses", "result": "2 to 4", "unit": "h"}, {"measurement": "time to appearance of subjective effects", "setting": "psychoactive doses", "result": "15 to 60", "unit": "min"}, {"measurement": "duration of action (acute effects)", "result": "8 to 12", "unit": "h"}]}]}
